Measured values from PMC7022712.

Target: Dnmt3a-CD P187R P773R (Mus musculus) (UniProt O88508)
Experiment: fluorescence polarization
Conditions: 100 uM AdoHcy, Kd not determined, weak binding retained, Buffer A: 20 mM HEPES pH 7.5, 100 mM KCl, 1 mM EDTA, 1 mM DTT, 25 C, DNA 100 nM (Methods) or 10 nM (Figure 6 legend), Hill fit, recombinant protein, protein details: C-terminal His6, label: 5'-FAM on strand 1 via aminohexyl linker

## CTGAATACTACTTGCGCTCTCTAACCTGAT (double strand) [fCG/CG]
  binding result: binds more weakly

Construct, isoform or probe ends are uncertain for at least one entry. The comparison behind a weaker result is the experiment's own reference, which may not be listed here.
